Laboratory results taken from US12351586B2 (priority 2020, dated 2025).
Read-outs that look alike come from different tables or passages of the source.

Protein sequences, listed by entry. Tags and fused reporters are not part of them. Lines headed by an entry give the natural chain unless they say otherwise; changes in a name come on top.
UniProt Q12809: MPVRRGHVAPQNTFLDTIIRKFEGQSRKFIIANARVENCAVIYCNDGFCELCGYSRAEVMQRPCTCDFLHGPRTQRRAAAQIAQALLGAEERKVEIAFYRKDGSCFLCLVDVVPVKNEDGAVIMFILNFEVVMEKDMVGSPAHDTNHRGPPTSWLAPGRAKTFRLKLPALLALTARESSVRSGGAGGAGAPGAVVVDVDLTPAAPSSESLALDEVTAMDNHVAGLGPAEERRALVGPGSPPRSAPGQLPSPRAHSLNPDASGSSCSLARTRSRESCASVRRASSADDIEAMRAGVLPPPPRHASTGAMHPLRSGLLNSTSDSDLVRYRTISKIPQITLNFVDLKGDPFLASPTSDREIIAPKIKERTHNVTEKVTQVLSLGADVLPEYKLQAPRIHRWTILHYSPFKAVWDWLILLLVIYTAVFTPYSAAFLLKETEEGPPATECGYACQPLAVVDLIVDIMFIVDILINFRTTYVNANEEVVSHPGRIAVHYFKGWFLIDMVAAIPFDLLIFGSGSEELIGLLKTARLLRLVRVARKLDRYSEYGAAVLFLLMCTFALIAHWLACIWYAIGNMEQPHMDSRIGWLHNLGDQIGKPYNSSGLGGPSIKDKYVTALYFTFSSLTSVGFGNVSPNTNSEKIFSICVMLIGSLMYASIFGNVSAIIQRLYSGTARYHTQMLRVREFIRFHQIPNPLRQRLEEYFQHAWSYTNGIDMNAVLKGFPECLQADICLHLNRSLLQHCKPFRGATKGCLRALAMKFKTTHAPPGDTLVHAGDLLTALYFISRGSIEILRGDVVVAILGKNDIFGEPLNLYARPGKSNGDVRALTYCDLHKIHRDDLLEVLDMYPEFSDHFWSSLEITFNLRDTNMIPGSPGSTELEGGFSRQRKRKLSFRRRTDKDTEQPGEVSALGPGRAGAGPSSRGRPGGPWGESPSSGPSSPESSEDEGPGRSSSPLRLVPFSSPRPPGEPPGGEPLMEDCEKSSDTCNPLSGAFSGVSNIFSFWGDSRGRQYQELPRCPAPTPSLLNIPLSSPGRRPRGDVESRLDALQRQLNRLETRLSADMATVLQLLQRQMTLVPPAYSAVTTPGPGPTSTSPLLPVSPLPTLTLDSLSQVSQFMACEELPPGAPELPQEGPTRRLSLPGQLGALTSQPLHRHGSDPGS

What was measured:
hERG potassium channel [1] = target: T1, hERG potassium channel (Homo sapiens, UniProt Q12809); test: cell-based
[2] = rat
hERG potassium channel [3] = target: T1, hERG potassium channel; conditions: cited from earlier work

Cc1cc(/C=C/C#N)cc(C)c1Oc1nc(NC2CCN(Cc3ccc(S(N)(=O)=O)cc3)CC2)nc2sccc12 [DK6-1]
IC50 (hERG potassium channel [1]): 980 nM | CL ([2]; iv 2 mg/kg): 38.3 ± 6.7 mL/min/kg | Cmax ([2]; iv 2 mg/kg): 1713 ± 399 ng/mL | T1/2 ([2]; iv 2 mg/kg): 2.0 ± 0.4 h | Cmax ([2]; po 20 mg/kg): 614 ± 249 ng/mL | T1/2 ([2]; po 20 mg/kg): 2.8 ± 0.3 h

Cc1cc(/C=C/C#N)cc(C)c1Oc1nc(NC2CCN(Cc3ccc(S(N)(=O)=O)cc3)CC2)nc2ccsc12 [25a]
IC50 (hERG potassium channel [3]): 186 nM
